Laboratory results published in PubChem BioAssay AID540276 (National Center for Advancing Translational Sciences (NCATS), 2011).
About 5,400 (1.8%) of roughly 300,000 compounds were called active. The shares of active, inactive and inconclusive entries below differ from those in the screen. Calls come from the whole dose curve; tested in HEK293 cells. A potency beside an inconclusive call is a rough fit, not a confirmed value.

Assay: qHTS for inhibitors of binding or entry into cells for Marburg Virus
Settings: Marburg virus pseudotyped entry inhibition, cell reporter; activity change, negative = inhibition: at 37.8 µM (top of the series) unless noted
% is set by controls: 0 for no effect and ±100 for the full control effect; potency is the fitted concentration of half-maximal effect.

SMILES | Potency | activity change, negative = inhibition
CC(=O)Oc1cc2c(C(=O)NCCCN3CCOCC3)c(C)oc2c2ccccc12 | inconclusive: 10 µM [inhibitor, partial curve, poor fit] | –
COC(=O)c1ccccc1NC(=O)Nc1cccs1 | – | inactive: 16.1%
CCC(=O)OC1(C)C(=O)C=C2C=C(CCCCNC(=O)OC(C)(C)C)OC=C2C1=O (stereo not drawn) | inconclusive: 0.0266 µM [activator, full curve, poor fit] | –
COC(=O)c1sccc1NC(=O)CC1C(=O)NCCN1C(=O)c1ccccc1 (stereo not drawn) | inconclusive: 1.12 µM [inhibitor, partial curve, poor fit] | –
COc1ccc(C2=[N+]([O-])C(C)(C)N(O)C2C)cc1 (stereo not drawn) | – | inactive: -0.746%
c1ccc(-c2[nH]c(-c3ccccc3)[n+](CC3CO3)c2-c2ccccc2)cc1 (stereo not drawn) | inconclusive: 35.5 µM [inhibitor, single point] | –
CCCC(C(=O)NC1CCCC1)N(C(=O)c1snc(C(N)=O)c1N)c1ccc(OCC)cc1 (stereo not drawn) | inconclusive: 10 µM [inhibitor, partial curve, poor fit] | –
O=C(Nc1nc2c(s1)CCCC2)c1cccs1 | inconclusive: 28.2 µM [inhibitor, partial curve, poor fit] | –
O=C(NN=Cc1ccc2c(c1)OCO2)NN=Cc1ccc2c(c1)OCO2 | inconclusive: 35.5 µM [inhibitor, single point] | –
COc1cc(C(=O)NNC(=O)COc2ccc(Cl)cc2)ccc1OCC(=O)N1CCOCC1 | – | inactive: -16.2%
COc1cc(S(=O)(=O)N2CCOCC2)cc(C(=O)OCC(=O)NCc2ccco2)c1OC | – | inactive: -2.82%
O=C(c1cccc2cccc(O)c12)N1CCCCC1 | – | inactive: 15.6%
CC(=O)Nc1nc2ccccc2n1CCOc1ccccc1 | inconclusive: 10 µM [inhibitor, partial curve] | –
Cc1cccc(-c2nnn3c2nc(NCc2ccccc2)c2ccccc23)c1 | inconclusive: 8.91 µM [activator, partial curve, poor fit] | –
Fc1ccc(-c2nnc(-c3ccc4ccccc4c3)o2)cc1 | inconclusive: 11.2 µM [inhibitor, partial curve] | –
Cc1cc2c(cc(C(=O)OCC(=O)NCc3cccs3)n2C(C)C)o1 | inconclusive: 0.82 µM [inhibitor, full curve] | –
COc1ccc(CCN=C(N)NS(=O)(=O)c2ccc(C)cc2)cc1 | inconclusive: 35.5 µM [inhibitor, single point] | –
CCc1ccc(-c2cc(C)no2)cc1S(=O)(=O)Nc1ccc(C)cn1 | inactive | –
CCCCNS(=O)(=O)c1cc(-c2nn(C)c(=O)c3ccccc23)ccc1C | inconclusive: 35.5 µM [inhibitor, single point] | –
Cc1cc(C)n2nc(SCc3ccccc3F)nc2n1 | – | inactive: 15.8% [at 46.1 µM]
O=C(NC1CCCCC1)c1ccc(COCC(F)(F)F)o1 | – | inactive: 3.61%
Cc1cc(C)c(C(=O)NC2CCCc3c2cnn3-c2cccc(C)c2C)o1 (stereo not drawn) | inconclusive: 5.01 µM [inhibitor, partial curve, poor fit] | –

As a short view, 2 of the compounds above.
SMILES | Potency | activity change, negative = inhibition
COc1ccc(C2=[N+]([O-])C(C)(C)N(O)C2C)cc1 (stereo not drawn) | – | inactive: -0.746%
c1ccc(-c2[nH]c(-c3ccccc3)[n+](CC3CO3)c2-c2ccccc2)cc1 (stereo not drawn) | inconclusive: 35.5 µM [inhibitor, single point] | –

(more compounds)

SMILES | Potency | activity change, negative = inhibition
CNC(=S)N(CCc1c(C)[nH]c2ccc(C)cc12)Cc1ccco1 | – | inactive: -40.3%
CCc1cc2ccccc2nc1SCC(=O)NC1CCCC1 | inconclusive: 11.2 µM [inhibitor, partial curve, poor fit] | –
CN(C)c1cc2c(cc1NC(=O)c1ccc(F)cc1)n(C)c(=O)n2C | – | inactive: 4.61% [at 46.1 µM]
O=C(CSc1ncnc2c1oc1ccccc12)c1cccs1 | inconclusive: 10 µM [activator, partial curve, poor fit] | –
Cc1ccccc1OCC(=O)Nc1cccc(C(=O)O)c1 | inconclusive: 1.26 µM [inhibitor, full curve, poor fit] | –
COc1cccc(Cn2c(C)c(CNCc3ccccc3Cl)c(C(=O)O)c2C)c1 | – | inactive: -7.67% [at 46.1 µM]
CCOc1ccc2nc(SCC(=O)N3c4ccccc4Sc4ccccc43)c(C#N)cc2c1 | inconclusive: 35.5 µM [activator, single point] | –
CC(=O)c1ccc(OCC(C)C)c(Cc2c(O)nc(N)[nH]c2=O)c1 | inconclusive: 1.41 µM [activator, partial curve] | –
Cc1cccc(NC(=S)NNC(=O)c2csc3c2CCCC3)c1 | inconclusive: 14.6 µM [activator, partial curve, poor fit] | –
Cc1ccccc1OCc1ccc(-c2nc(C#N)c(N3CCN(c4ccccc4)CC3)o2)o1 | inconclusive: 0.794 µM [inhibitor, full curve, poor fit] | –
CCOC(=O)c1ccc(NC(=O)CSc2nnc(COc3ccccc3)n2C)cc1 | inconclusive: 35.5 µM [activator, partial curve, poor fit] | –
COc1ccccc1C(=O)N1CCNC(=O)C1CC(=O)Nc1ccc(Cl)cc1 (stereo not drawn) | inconclusive: 1.12 µM [activator, partial curve, poor fit] | –
Cc1cc(OCC(=O)Nc2ccc(S(=O)(=O)N3CCN(C)CC3)cc2)ccc1Br | inconclusive: 35.5 µM [inhibitor, single point] | –
O=C(NCCCc1nc2ccccc2n1Cc1ccccc1)C1CCCCC1 | inconclusive: 7.94 µM [inhibitor, partial curve, poor fit] | –
CCCN1CCN(CCCNC(=O)CN2C(=O)c3cccnc3Oc3ccc(C)cc32)CC1 | – | inactive: 3.17% [at 46.1 µM]
O=C(c1ccco1)n1nc(-c2ccc(Cl)cc2)nc1NCc1ccco1 | inconclusive: 29.1 µM [activator, single point] | –
CCc1noc(C)c1C(=O)Nc1nnc(CC(C)C)s1 | – | inactive: 13% [at 46.1 µM]
CCC(=O)N=C1SC2CS(=O)(=O)CC2N1c1cccc(OC)c1 (stereo not drawn) | inconclusive: 1.16 µM [activator, full curve] | –
CC1=C(C(=O)OCc2ccccc2)C(c2cccs2)N2C(=O)CCSC2=N1 (stereo not drawn) | inconclusive: 22.4 µM [inhibitor, single point] | –
O=C(c1noc2c1CCCC2)N1CCN(c2ccc(F)cc2)CC1 | inconclusive: 32.6 µM [inhibitor, single point] | –
Cc1ccc(C(C)C)c(OCCN)c1 | inconclusive: 14.6 µM [inhibitor, partial curve, poor fit] | –
